# Assay results from paper PMC10045306.
# Amino acid sequences for entries named in this document (tags omitted).
# UniProt P37238: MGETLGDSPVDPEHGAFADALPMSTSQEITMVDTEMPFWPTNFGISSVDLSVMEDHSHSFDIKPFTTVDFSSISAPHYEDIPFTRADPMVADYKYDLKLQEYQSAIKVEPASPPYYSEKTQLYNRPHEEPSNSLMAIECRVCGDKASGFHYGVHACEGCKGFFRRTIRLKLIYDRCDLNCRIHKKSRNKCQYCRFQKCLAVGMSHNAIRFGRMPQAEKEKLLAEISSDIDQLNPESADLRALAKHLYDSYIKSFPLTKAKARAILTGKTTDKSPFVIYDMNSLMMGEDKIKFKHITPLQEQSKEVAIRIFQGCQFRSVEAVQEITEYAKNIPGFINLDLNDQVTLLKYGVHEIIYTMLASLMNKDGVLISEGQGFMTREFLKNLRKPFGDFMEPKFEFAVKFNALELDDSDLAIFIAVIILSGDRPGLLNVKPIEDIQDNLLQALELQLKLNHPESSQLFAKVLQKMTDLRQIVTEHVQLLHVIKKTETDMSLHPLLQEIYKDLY
# UniProt P28184: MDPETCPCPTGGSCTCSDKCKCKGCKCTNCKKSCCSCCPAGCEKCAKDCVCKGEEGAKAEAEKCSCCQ
# No constants are given. Whether binding was seen depends on the method and setting. Binding seen in cells or lysates may run through a third protein.
# Target: peroxisome proliferator-activated receptor γ (UniProt P37238)
# Test: co-IP; HEK 293T cells transfected with HA-MT3, Myc-PPARγ or empty Myc vector; lysis buffer with 1% NP-40, 25 mM HEPES pH 7.5, 150 mM NaCl, 0.25% sodium deoxycholate; lysates with antibodies at 4 °C overnight, protein A-Sepharose beads 2 h at 4 °C, three washes with lysis buffer, immunoblotting
substance,measurement,value
Metallothionein 3 (from UniProt P28184 1-68),binding,no binding
